Experimental data reported in patent US12195506B2, “Immunotherapy with A*01 restricted peptides and combination of peptides against cancers and related methods” (Immatics Biotechnologies GmbH, priority 2018, dated 2025).

test system: HLA molecules of primary tumors and normal tissue samples; assay: Identification and relative quantitation of HLA ligands by LC-MS (peptide presentation on tumor versus normal tissue); parameters: species or system human; conditions: cancer entities on which the peptide was found presented (HLA ligands, LC-MS); abbreviations as in title of Table 8

Row | Substance | Peptide Presentation on cancer entities
1 | 223 (NAVDVVPSSF; listed as Homo sapiens) [compound 223] | GBC
2 | 224 (RTDEGDNRVW; listed as Homo sapiens) [compound 224] | OSCAR
3 | 226 (QITPKHNGLY; listed as Homo sapiens) [compound 226] | NSCLCsquam, OC
4 | 230 (CVIETFHKY; listed as Homo sapiens) [compound 230] | GBC
5 | 233 (RINSATGQY; listed as Homo sapiens) [compound 233] | CLL
6 | 234 (YTDLTTIQV; listed as Homo sapiens) [compound 234] | HNSCC
7 | 235 (SIEIDHTQY; listed as Homo sapiens) [compound 235] | CCC, MEL, NSCLCadeno
8 | 237 (AQEAAVFLTLY; listed as Homo sapiens) [compound 237] | SCLC
9 | 238 (ETDWGLLKGHTY; listed as Homo sapiens) [compound 238] | BRCA
10 | 239 (SSERGSPIEKY; listed as Homo sapiens) [compound 239] | OSCAR
11 | 240 (EVLDSLLAQY; listed as Homo sapiens) [compound 240] | OSCAR
12 | 242 (GTNLPTLLW; listed as Homo sapiens) [compound 242] | HCC, OSCAR
13 | 243 (LTSEDTGAY; listed as Homo sapiens) [compound 243] | NSCLCadeno
14 | 244 (VTKYIAGPY; listed as Homo sapiens) [compound 244] | BRCA
15 | 245 (LSDNAANRY; listed as Homo sapiens) [compound 245] | AML
16 | 246 (ARLEGEIATY; listed as Homo sapiens) [compound 246] | NSCLCsquam
17 | 247 (SMIRVGTNY; listed as Homo sapiens) [compound 247] | NSCLCsquam, OC
18 | 250 (GYVCNACGLY; listed as Homo sapiens) [compound 250] | HNSCC
19 | 251 (GIEMTYETY; listed as Homo sapiens) [compound 251] | GBC
20 | 253 (YLESHGLAY; listed as Homo sapiens) [compound 253] | NSCLCsquam
21 | 254 (FLFNDALLY; listed as Homo sapiens) [compound 254] | BRCA
22 | 255 (WELDSLEY; listed as Homo sapiens) [compound 255] | GBM
23 | 258 (RPSSVLTIY; listed as Homo sapiens) [compound 258] | GBM, MEL, NSCLCsquam
24 | 259 (APDEVVALL; listed as Homo sapiens) [compound 259] | MEL
25 | 260 (KPTEDSANVY; listed as Homo sapiens) [compound 260] | OSCAR
26 | 261 (MTEGSTVNTEY; listed as Homo sapiens) [compound 261] | GBC, GC

Row | Substance | Peptide Presentation on cancer entities
27 | 263 (DCMDTEGSYM; listed as Homo sapiens) [compound 263] | UEC
28 | 267 (IVADDTVY; listed as Homo sapiens) [compound 267] | NSCLCadeno, NSCLCother
29 | 269 (LPSPAATIWDY; listed as Homo sapiens) [compound 269] | GBC
30 | 270 (DLKIDLAAQY; listed as Homo sapiens) [compound 270] | OSCAR
31 | 271 (VAEPPVVCSY; listed as Homo sapiens) [compound 271] | HCC
32 | 272 (IPQDECLRY; listed as Homo sapiens) [compound 272] | GBC, HNSCC
33 | 273 (CGPNEINHFY; listed as Homo sapiens) [compound 273] | NSCLCsquam
34 | 274 (YADIHGDLL; listed as Homo sapiens) [compound 274] | RCC
35 | 275 (ESDEMENLLTY; listed as Homo sapiens) [compound 275] | BRCA
36 | 277 (LPAPGFLFY; listed as Homo sapiens) [compound 277] | GBC
37 | 278 (AATVKSDIY; listed as Homo sapiens) [compound 278] | NSCLCsquam
38 | 279 (LMTVLLKY; listed as Homo sapiens) [compound 279] | BRCA
39 | 282 (QAMPSWPTAAY; listed as Homo sapiens) [compound 282] | NSCLCsquam
40 | 283 (ETILVSSSY; listed as Homo sapiens) [compound 283] | NSCLCadeno
41 | 284 (TCSHTFVYY; listed as Homo sapiens) [compound 284] | NSCLCadeno, SCLC
42 | 285 (VLPHHSEGACVY; listed as Homo sapiens) [compound 285] | NSCLCadeno, OC
43 | 286 (ATDMEGNLNY; listed as Homo sapiens) [compound 286] | BRCA, GBM, NSCLCadeno
44 | 287 (ENSIEDLQY; listed as Homo sapiens) [compound 287] | HCC
45 | 289 (YTSHEDIGY; listed as Homo sapiens) [compound 289] | NSCLCadeno
46 | 290 (GQFTGTAGACRY; listed as Homo sapiens) [compound 290] | NSCLCadeno, OC
47 | 291 (TSDVTGSLTY; listed as Homo sapiens) [compound 291] | NSCLCother
48 | 294 (MMEMEGMY; listed as Homo sapiens) [compound 294] | NSCLCsquam
49 | 296 (HMLAAMAY; listed as Homo sapiens) [compound 296] | BRCA, MEL, NHL, NSCLCadeno, NSCLCother, NSCLCsquam, OC, RCC
50 | 297 (RLDEAMISY; listed as Homo sapiens) [compound 297] | UBC
51 | 298 (KFDVINHYF; listed as Homo sapiens) [compound 298] | BRCA
52 | 299 (EVDSVALSL; listed as Homo sapiens) [compound 299] | MEL

Row | Substance | Peptide Presentation on cancer entities
53 | 301 (ESQTCASDY; listed as Homo sapiens) [compound 301] | GBC, NSCLCother
54 | 302 (FYLSTPENYHY; listed as Homo sapiens) [compound 302] | BRCA
55 | 303 (GFGGLSSQGVYY; listed as Homo sapiens) [compound 303] | CCC, HNSCC
56 | 304 (FSENLIYTYI; listed as Homo sapiens) [compound 304] | MEL
57 | 306 (KSFETTVRY; listed as Homo sapiens) [compound 306] | MEL, OSCAR
58 | 307 (DTDDRELRY; listed as Homo sapiens) [compound 307] | GBM, HCC, UEC
59 | 308 (ELAAGQVVY; listed as Homo sapiens) [compound 308] | CLL, OSCAR
60 | 309 (EVDRNLIQY; listed as Homo sapiens) [compound 309] | UEC
61 | 311 (TVTDGTHTDFY; listed as Homo sapiens) [compound 311] | NSCLCsquam
62 | 312 (VTDGINPLI; listed as Homo sapiens) [compound 312] | OSCAR
63 | 313 (VTDGTHTDFY; listed as Homo sapiens) [compound 313] | MEL
64 | 314 (PPEANSLQGALY; listed as Homo sapiens) [compound 314] | CCC, OC
65 | 316 (YTCEECGQAF; listed as Homo sapiens) [compound 316] | BRCA, GBM, GC, HCC, HNSCC, NHL, NSCLCadeno, NSCLCsquam, OSCAR, PACA, UEC
66 | 317 (EDLLEVLDMY; listed as Homo sapiens) [compound 317] | UEC
67 | 318 (YMTSMALNY; listed as Homo sapiens) [compound 318] | NSCLCsquam
68 | 319 (FTDPHIITF; listed as Homo sapiens) [compound 319] | BRCA
69 | 320 (QALQDKLQTFY; listed as Homo sapiens) [compound 320] | BRCA
70 | 321 (DGIADASNLSYY; listed as Homo sapiens) [compound 321] | MEL, NSCLCadeno, NSCLCsquam
71 | 322 (FSELNPLALY; listed as Homo sapiens) [compound 322] | GC, HNSCC, NSCLCsquam, OSCAR
72 | 323 (KTLQKPVLPLY; listed as Homo sapiens) [compound 323] | CLL
73 | 324 (RTGIFPYRF; listed as Homo sapiens) [compound 324] | GBC
74 | 325 (LQKPVLPLY; listed as Homo sapiens) [compound 325] | CLL, NSCLCsquam
75 | 326 (STSRLTLFS; listed as Homo sapiens) [compound 326] | GBM, HNSCC
76 | 327 (IMLSVDQHLY; listed as Homo sapiens) [compound 327] | HNSCC, MEL
77 | 329 (NTDSMTLNNTAY; listed as Homo sapiens) [compound 329] | BRCA, GBC, HNSCC, NSCLCadeno, NSCLCsquam, OSCAR, UBC
78 | 331 (YLYQAPGSLALY; listed as Homo sapiens) [compound 331] | NSCLCadeno
